Results from paper PMC6375388.
The exact form of at least one protein or probe is not confirmed. For some assays here: At least one verdict rests on a figure or table, not on a statement of the authors.

Chains of the proteins cited; added tags and fusions are not shown. Residues count along the entry.
UniProt P01127, 82-190: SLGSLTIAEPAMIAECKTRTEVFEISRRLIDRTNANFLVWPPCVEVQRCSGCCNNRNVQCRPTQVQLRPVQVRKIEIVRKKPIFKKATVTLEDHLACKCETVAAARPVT

Key:
PDGF-BB (Homo sapiens) [1] = molecular target: PDGF-BB (Homo sapiens) (UniProt P01127); test: growth factor retention/release from functionalized coverslip (ELISA?); settings: minimal release versus RGD-functionalized coverslips; 5' thiol C6 and Sp18; 3' Sp18 and azide coupled to DBCO-GRGDSPC peptide; immobilized on maleimide glass; Retention of PDGF-BB on TrAP-coated glass coverslips after washing; Kd values cited; recombinant protein; folded or branched …
PDGF-BB (Homo sapiens) [2] = molecular target: PDGF-BB (Homo sapiens) (UniProt P01127); test: binding assay; settings: Retention of PDGF-BB on TrAP-coated glass coverslips after washing; Kd values cited; recombinant protein; folded or branched DNA

Sequence | binding result (PDGF-BB (Homo sapiens) [1]) | Kd (PDGF-BB (Homo sapiens) [2]) [nM]
CAGGCTACGGCACGTAGAGCATCACCATGATCCTG [PDGF-BB RGD-TrAP (Apt_PDGFBB_1)] | binds | –
CAGGCTACGGCACGTAGAGCATCACCATGATCCTG [anti-PDGF-BB aptamer] | – | 0.1
